Values quoted from earlier work as cited in US20250074871A1, “PHENETHYLAMINES AND METHODS OF PREPARATION THEREOF” (priority 2022, published 2025).
At least one structure is not confirmed: it was looked up by name or label, or the drawing left a doubt.

Tested on: mice
Conditions: psychedelic compounds known in the art; cited from earlier work

CN(C)CCc1c[nH]c2cccc(OP(=O)(O)O)c12 [Psilocybin, psilocybin, reference compound]
duration of psychedelic effect: more than 30 minutes
